Measurements reported in PubChem BioAssay AID1224826 (NIAID, 2016).

Assay: 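Knock-downs that raise or lower Tnf reporter signal after endotoxin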 (primary screen)
Cells: RAW264.7 G9 macrophages from mouse bearing reporters for p65 (GFP) and the Tnf promoter (mCherry)
Reagents: siRNA pool against mouse genes, 100 nM
Time to read-out: 16 h of LPS stimulation, after 2 days of siRNA transfection
Conditions: bacterial lipopolysaccharide (Salmonella minnesota R595), 10 ng/ml
Measurement: 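Imaged Tnf reporter mCherry in nuclei, minus background, normalised per plate to the median and expressed as robust z-scores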
Direction: Tnf reporter robust z-score: higher = stronger Tnf promoter reporter signal after LPS
Call rule: 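Called active when robust z-score is at most -1.3, matching the median of the Tlr4 knock-down control, or over 3; control wells and wells with under 50 cells never active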
Calls: active = Tnf reporter clearly lowered or raised; inactive = no clear change in Tnf reporter
Shown is a random part of about 17,000 reagents. About 1,110 of them (6.6%) count as active. 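Active means lowered or raised reporter signal; replicate intensities are raw and not normalised per plate.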 Not all columns of the deposit are shown. No sequences are given here.

| gene knocked down | Tnf reporter robust z-score | fewer than 50 cells in well | outcome |
| --- | --- | --- | --- |
| Clec4e | -0.07 | enough cells in well | inactive |
| Amph | -0.6 | enough cells in well | inactive |
| Npy4r | -0.78 | enough cells in well | inactive |
| Kynu | 0.58 | enough cells in well | inactive |
| Reep2 | 0.54 | enough cells in well | inactive |
| Tenm2 | -1.34 | enough cells in well | active |
| Prex1 | 1.31 | enough cells in well | inactive |
| Gabrb1 | -1.5 | enough cells in well | active |
| Cebpb | -1.02 | enough cells in well | inactive |
| Tes | – | fewer than 50 cells per well; well left out of calls | inactive |
| Ifi47 | -1.04 | enough cells in well | inactive |
| Mdp1 | 0.61 | enough cells in well | inactive |
| Tmem270 | – | fewer than 50 cells per well; well left out of calls | inactive |
| Cldn18 | -0.92 | enough cells in well | inactive |
| Eci2 | -0.31 | enough cells in well | inactive |
| Arhgef18 | -0.45 | enough cells in well | inactive |
| Krtap12-1 | -1.35 | enough cells in well | active |
| Cxcr1 | 0.69 | enough cells in well | inactive |
| Defa31 | 2.42 | enough cells in well | inactive |
| Afm | 0.13 | enough cells in well | inactive |
| Lsamp | 3.68 | enough cells in well | active |
| Mrps18a | -1.84 | enough cells in well | active |
| Rpl35 | -0.47 | enough cells in well | inactive |
| Aoc1l3 | 3.7 | enough cells in well | active |
| Trmt44 | – | fewer than 50 cells per well; well left out of calls | inactive |
| Or2a57 | 0.2 | enough cells in well | inactive |
| Ptpra | -0.42 | enough cells in well | inactive |
| Lsm12 | 0.99 | enough cells in well | inactive |
| Ggt6 | 1.09 | enough cells in well | inactive |
| Wwtr1 | – | fewer than 50 cells per well; well left out of calls | inactive |
| Vpreb1b | -0.46 | enough cells in well | inactive |
| Baalc | 0.4 | enough cells in well | inactive |
| Adora2a | -1.03 | enough cells in well | inactive |
| Msmb | 0.25 | enough cells in well | inactive |
| Rad51c | 0.38 | enough cells in well | inactive |
| Psmd7 | 0.66 | enough cells in well | inactive |
| Htatsf1 | 1.67 | enough cells in well | inactive |
| Galk1 | -1.5 | enough cells in well | active |
| Kcnj11 | 1.71 | enough cells in well | inactive |
| Adam1b | 1.64 | enough cells in well | inactive |
| Irgc | -0.63 | enough cells in well | inactive |
| Aqp9 | 0.04 | enough cells in well | inactive |
| Sult2b1 | -0.15 | enough cells in well | inactive |
| Mustn1 | -0.75 | enough cells in well | inactive |
| Zftraf1 | 0.56 | enough cells in well | inactive |
| Or5d35 | -0.98 | enough cells in well | inactive |
| Sdhaf2 | -0.52 | enough cells in well | inactive |
| Or5k1b | 0.67 | enough cells in well | inactive |
| Esx1 | -0.83 | enough cells in well | inactive |
| Phf1 | -0.59 | enough cells in well | inactive |
| Ube3c | 7.99 | enough cells in well | active |
| Gramd1a | – | fewer than 50 cells per well; well left out of calls | inactive |
| Ints10 | – | fewer than 50 cells per well; well left out of calls | inactive |
| Dclk1 | -0.93 | enough cells in well | inactive |
| Brs3 | -1.08 | enough cells in well | inactive |
| Arhgdia | – | fewer than 50 cells per well; well left out of calls | inactive |
| Invs | -0.47 | enough cells in well | inactive |
| Masp1 | 1.52 | enough cells in well | inactive |

Records listed so far called active:
| gene knocked down | Tnf reporter robust z-score | fewer than 50 cells in well | outcome |
| --- | --- | --- | --- |
| Tenm2 | -1.34 | enough cells in well | active |
| Gabrb1 | -1.5 | enough cells in well | active |
| Krtap12-1 | -1.35 | enough cells in well | active |
| Lsamp | 3.68 | enough cells in well | active |
| Mrps18a | -1.84 | enough cells in well | active |
| Aoc1l3 | 3.7 | enough cells in well | active |
| Galk1 | -1.5 | enough cells in well | active |
| Ube3c | 7.99 | enough cells in well | active |
